From the supplement of paper PMC8104966
This is one part of the list. Single values are uncertain here, since repeats match poorly.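 U2OS cells expressing ACE2 were combined with U2OS cells expressing full-length spike, and imaging quantified fusion as the fraction of nuclei displaying both cell types' fluorescent markers. Non-toxic compounds with a fusion z-score under -3, i.e., over three standard deviations below the plate's DMSO wells, are called inhibitory hits.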

The compounds below were run on U2OS ACE2 x SARS-CoV-2 spike co-culture (assay: cell-cell fusion (fraction fused) z-score vs plate DMSO control; higher = more fusion). Details: 30 µM; 5 h; toxicity class: non-toxic, passed QC.

Row | SMILES | cell-cell fusion (z-score)
1 | CC(=O)N[C@@H]1[C@@H](C(O)[C@H](O)CO)O[C@](O)(C(=O)O)C[C@@H]1O (stereo not given in full) | inactive: 1.92
2 | CN(C)CCc1c[nH]c2ccc(CS(=O)(=O)N3CCCC3)cc12 | inactive: 0.082
3 | CCCn1c(=O)c2[nH]c(C3CCCC3)nc2n(CCCOC(=O)c2ccc(S(=O)(=O)F)cc2)c1=O | inactive: 1.86
4 | O.O=CN(O)CCCP(=O)(O)O.[Na] [Fosmidomycin sodium salt hydrate] | inactive: 2.73
5 | Cl.NC(N)=NC(=O)Cc1c(Cl)cccc1Cl | inactive: 2.13
6 | CCc1cc2c(cc1N1CCC(N3CCOCC3)CC1)C(C)(C)c1[nH]c3cc(C#N)ccc3c1C2=O | inactive: 0.044
7 | CN(C)CCC=C1c2ccccc2CCc2ccccc21.Cl | inactive: 0.116
8 | CN(C)CCC=C1c2ccccc2CCc2ccccc21.Cl [Amitriptyline hydrochloride] | inactive: 1.86
9 | COC(=O)[C@@H]1OC(=O)C2OC23[C@@]1(C)CCC1[C@]2(C)C(C[C@@H](O)[C@]13C)C(C)(C)[C@H](OC(C)=O)C[C@@H]2OC(C)=O (stereo not given in full) | inactive: 1.91
10 | COc1cc(Nc2ncc3c(n2)-c2ccc(Cl)cc2C(c2c(F)cccc2OC)=NC3)ccc1C(=O)O [MLN8237 (Alisertib)] | inactive: 2.29
11 | COc1cc(Nc2ncc3c(n2)-c2ccc(Cl)cc2C(c2c(F)cccc2OC)=NC3)ccc1C(=O)O [Alisertib (MLN8237)] | inactive: 0.41
12 | C[C@]12C=CC(=O)C=C1CC[C@@H]1[C@@H]2C(=O)C[C@@]2(C)[C@H]1CC[C@]2(O)C(=O)CO [Prednisone] | inactive: 2
13 | O=[N+]([O-])c1cc([As](=O)(O)O)ccc1O | inactive: 2.2
14 | Cc1nccnc1N1CCCCC1.O=S(=O)(O)O | inactive: 2.22
15 | COc1cc(OC)c2c(=O)c(-c3ccc4c(c3)OCO4)coc2c1 | inactive: 2.31
16 | N#CC(C#N)=Cc1ccc(O)c(O)c1 [Tyrphostin 23] | inactive: 1.47
17 | CCNC(=O)CCC/C=C\C[C@@H]1[C@@H](/C=C/[C@@H](O)CCc2ccccc2)[C@H](O)C[C@@H]1O [Bimatoprost] | inactive: 2.03
18 | CCN(CC)CCNC(=O)COc1ccc(OC)cc1.Cl | inactive: 1.76
19 | COC1(C)CCC2OC2(C)CCC2C1CC2(C)C (stereo not given) | inactive: 2.11
20 | CCCN1CCC[C@@H](c2cccc(O)c2)C1.Cl [S(-)-3PPP hydrochloride] | inactive: 1.59

Part of the list above, field by field:
CCCn1c(=O)c2[nH]c(C3CCCC3)nc2n(CCCOC(=O)c2ccc(S(=O)(=O)F)cc2)c1=O
  cell-cell fusion (z-score): inactive: 1.86
N#CC(C#N)=Cc1ccc(O)c(O)c1 [Tyrphostin 23]
  cell-cell fusion (z-score): inactive: 1.47
